The list is a part of this screen's results and no random one: it gathers some chemical classes. Not every dose and run of a compound is shown. T/C: endpoint of the treated group in % of that of the vehicle group. Where survival is the endpoint, the PubChem record calls one and a half times the control and up active, and a quarter to a half above the control has no call in these data; cut-offs in other NCI protocols can differ. Some T/C values are marked as having no survivor count here; that says nothing about deaths at the dose. Schedules are NCI's codes, taken here to give the interval after Q, in days (D) or hours (H), and the number of doses after X. Some doses were run more than once; the values are given in rising order.
Tested on: BDF1 mice, P388 leukemia ip, median survival T/C
Assay: NCI In Vivo Anticancer Drug Screen. Data for tumor model P388 Leukemia (intraperitoneal) in B6D2F1 (BDF1) mice
Details: T/C endpoint: median survival time, higher T/C = longer survival
Protocol: The antitumor activity of compounds was measured in mice bearing transplantable tumors. Survival or tumor size were measured and the results are expressed as the measurement made in the treated group (T) divided by the measurement made in the vehicle treated control group (C). The tumor model used in this assay is P388 Leukemia (intraperitoneal) in B6D2F1 (BDF1) mice

[1] = dose: 1.0 mg/kg/injection, schedule: Q04DX003 (ip), vehicle: saline
[2] = dose: 2.0 mg/kg/injection, schedule: Q04DX003 (ip), vehicle: saline
[3] = dose: 4.0 mg/kg/injection, schedule: Q01DX009 (ip), vehicle: saline
[4] = dose: 4.0 mg/kg/injection, schedule: Q04DX003 (ip), vehicle: saline
[5] = dose: 8.0 mg/kg/injection, schedule: Q04DX003 (ip), vehicle: saline
[6] = dose: 2.5 mg/kg/injection, schedule: Q01DX009 (ip), vehicle: saline
[7] = dose: 5.0 mg/kg/injection, schedule: Q01DX009 (ip), vehicle: saline
[8] = dose: 25.0 mg/kg/injection, schedule: Q01DX009 (ip), vehicle: saline
[9] = dose: 50.0 mg/kg/injection, schedule: Q01DX009 (ip), vehicle: saline
[10] = dose: 100.0 mg/kg/injection, schedule: Q04DX003 (ip), vehicle: saline

C#CCN(CCCl)CCCl
T/C [1]: 113 % of control [survivor count not shown] | T/C [2]: 145 % of control [survivor count not shown] | T/C (dose: 2.3 mg/kg/injection, schedule: Q04DX003 (ip), vehicle: saline): 129 % of control [survivor count not shown] | T/C (dose: 2.6 mg/kg/injection, schedule: Q01DX009 (ip), vehicle: saline): 177 % of control [survivor count not shown] | T/C (dose: 3.5 mg/kg/injection, schedule: Q04DX003 (ip), vehicle: saline): 125 % of control [survivor count not shown] | T/C [3]: 204 % of control [survivor count not shown] | T/C [4]: 195 % of control [survivor count not shown] | T/C (dose: 5.3 mg/kg/injection, schedule: Q04DX003 (ip), vehicle: saline): 158 [survivor count not shown], 168 [survivor count not shown], 179 % of control [survivor count not shown] | T/C (dose: 6.0 mg/kg/injection, schedule: Q01DX009 (ip), vehicle: saline): 272 % of control [survivor count not shown] | T/C [5]: 127 [survivor count not shown], 141 [survivor count not shown], 184 % of control [survivor count not shown] | T/C (dose: 12.0 mg/kg/injection, schedule: Q04DX003 (ip), vehicle: saline): 200 [survivor count not shown] and 216 % of control [survivor count not shown]

ClCCNCCBr
T/C (dose: 0.78 mg/kg/injection, schedule: Q01DX009 (ip), vehicle: saline): 118 % of control [survivor count not shown] | T/C [1]: 113 % of control [survivor count not shown] | T/C (dose: 1.25 mg/kg/injection, schedule: Q01DX009 (ip), vehicle: saline): 116 [survivor count not shown], 126 [survivor count not shown], 198 % of control [survivor count not shown] | T/C (dose: 1.25 mg/kg/injection, schedule: Q04DX003 (ip), vehicle: saline): 100 % of control [survivor count not shown] | T/C (dose: 1.5 mg/kg/injection, schedule: Q04DX003 (ip), vehicle: saline): 145 % of control [survivor count not shown] | T/C (dose: 1.56 mg/kg/injection, schedule: Q01DX009 (ip), vehicle: saline): 121 [survivor count not shown] and 145 % of control [survivor count not shown] | T/C (dose: 2.2 mg/kg/injection, schedule: Q04DX003 (ip), vehicle: saline): 136 % of control [survivor count not shown] | T/C [6]: 122 [survivor count not shown], 128 [survivor count not shown], 245 % of control [survivor count not shown] | T/C (dose: 2.5 mg/kg/injection, schedule: Q04DX003 (ip), vehicle: saline): 102 [survivor count not shown] and 117 % of control [survivor count not shown] | T/C (dose: 3.13 mg/kg/injection, schedule: Q01DX009 (ip), vehicle: saline): 146 [survivor count not shown] and 178 % of control [survivor count not shown] | T/C (dose: 3.3 mg/kg/injection, schedule: Q04DX003 (ip), vehicle: saline): 152 % of control [survivor count not shown] | T/C [7]: 101 [survivor count not shown], 110 [survivor count not shown], 144 % of control [survivor count not shown] | T/C (dose: 5.0 mg/kg/injection, schedule: Q04DX003 (ip), vehicle: saline): 147 [survivor count not shown], 153 [survivor count not shown], 159 [survivor count not shown], 186 % of control [survivor count not shown] | T/C (dose: 7.5 mg/kg/injection, schedule: Q04DX003 (ip), vehicle: saline): 152 % of control [survivor count not shown] | T/C (dose: 10.0 mg/kg/injection, schedule: Q01DX009 (ip), vehicle: saline): 194 % of control [survivor count not shown] | T/C (dose: 10.0 mg/kg/injection, schedule: Q04DX003 (ip), vehicle: saline): 100 [survivor count not shown], 113 [survivor count not shown], 170 % of control [survivor count not shown]

ClCCCC(Cl)CNCCCl (stereo not drawn)
T/C (dose: 1.0 mg/kg/injection, schedule: Q01DX009 (ip), vehicle: saline): 95 % of control [survivor count not shown] | T/C [1]: 108 % of control [survivor count not shown] | T/C (dose: 2.0 mg/kg/injection, schedule: Q01DX009 (ip), vehicle: saline): 119 % of control [survivor count not shown] | T/C [2]: 108 % of control [survivor count not shown] | T/C [6]: 120 % of control [survivor count not shown] | T/C [3]: 109 % of control [survivor count not shown] | T/C [4]: 100 % of control [survivor count not shown] | T/C [7]: 120 % of control [survivor count not shown] | T/C (dose: 8.0 mg/kg/injection, schedule: Q01DX009 (ip), vehicle: saline): 142 % of control [survivor count not shown] | T/C [5]: 100 % of control [survivor count not shown] | T/C (dose: 16.5 mg/kg/injection, schedule: Q04DX003 (ip), vehicle: saline): 113 % of control [survivor count not shown] | T/C (dose: 25.0 mg/kg/injection, schedule: Q04DX003 (ip), vehicle: saline): 95 % of control [survivor count not shown] | T/C (dose: 37.5 mg/kg/injection, schedule: Q04DX003 (ip), vehicle: saline): 159 % of control [survivor count not shown]

ClCCCCC(CCl)NCCCl (stereo not drawn)
T/C (dose: 1.3 mg/kg/injection, schedule: Q01DX009 (ip), vehicle: saline): 87 % of control [survivor count not shown] | T/C (dose: 1.9 mg/kg/injection, schedule: Q01DX009 (ip), vehicle: saline): 100 % of control [survivor count not shown] | T/C (dose: 3.0 mg/kg/injection, schedule: Q01DX009 (ip), vehicle: Klucel (hydroxypropylcellulose) (HPC)): 131 % of control [survivor count not shown] | T/C (dose: 4.6 mg/kg/injection, schedule: Q01DX009 (ip), vehicle: Klucel (hydroxypropylcellulose) (HPC)): 122 % of control [survivor count not shown] | T/C (dose: 16.0 mg/kg/injection, schedule: Q01DX009 (ip), vehicle: saline): 159 % of control [survivor count not shown] | T/C [8]: 142 [survivor count not shown] and 195 % of control [survivor count not shown] | T/C (dose: 35.0 mg/kg/injection, schedule: Q01DX009 (ip), vehicle: saline): 122 % of control [survivor count not shown] | T/C [9]: 95 % of control [survivor count not shown] | T/C [10]: 90 % of control [survivor count not shown]

N#CC(C#N)=Cc1ccccc1
T/C (dose: 6.25 mg/kg/injection, schedule: Q01DX009 (ip), vehicle: Klucel (hydroxypropylcellulose) (HPC)): 90 % of control [survivor count not shown] | T/C (dose: 12.5 mg/kg/injection, schedule: Q01DX009 (ip), vehicle: Klucel (hydroxypropylcellulose) (HPC)): 100 % of control [survivor count not shown] | T/C (dose: 25.0 mg/kg/injection, schedule: Q01DX009 (ip), vehicle: Klucel (hydroxypropylcellulose) (HPC)): 118 % of control [survivor count not shown] | T/C (dose: 100.0 mg/kg/injection, schedule: Q04DX003 (ip), vehicle: Klucel (hydroxypropylcellulose) (HPC)): 95 % of control [survivor count not shown] | T/C (dose: 200.0 mg/kg/injection, schedule: Q04DX003 (ip), vehicle: Klucel (hydroxypropylcellulose) (HPC)): 91 % of control [survivor count not shown]

ClCCNCCCCNCCCl
T/C (dose: 18.7 mg/kg/injection, schedule: Q01DX009 (ip), vehicle: saline): 168 % of control [survivor count not shown] | T/C [8]: 190 % of control [survivor count not shown] | T/C (dose: 37.5 mg/kg/injection, schedule: Q01DX009 (ip), vehicle: saline): 204 % of control [survivor count not shown] | T/C (dose: 44.0 mg/kg/injection, schedule: Q04DX003 (ip), vehicle: saline): 204 % of control [survivor count not shown] | T/C [9]: 209 % of control [survivor count not shown] | T/C (dose: 66.0 mg/kg/injection, schedule: Q04DX003 (ip), vehicle: saline): 221 % of control [survivor count not shown] | T/C [10]: 147 [survivor count not shown] and 173 % of control [survivor count not shown] | T/C (dose: 150.0 mg/kg/injection, schedule: Q04DX003 (ip), vehicle: saline): 121 % of control [survivor count not shown] | T/C (dose: 200.0 mg/kg/injection, schedule: Q04DX003 (ip), vehicle: saline): 100 % of control [survivor count not shown]

Source: PubChem BioAssay AID328 (DTP/NCI, 2004)
